Results deposited as PubChem BioAssay AID743454 (Peter MacCallum Cancer Centre, 2014).
The deposit covers about 18,000 reagents; shown is an unselected part. 450 of them (2.5%) count as active. 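Single biological run; no consistent viability z cut-off exists, so the class columns, not z-scores, define the calls.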 Unmarked entries are inactive.

Aim: 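Genes whose loss kills vorinostat-resistant colon cancer cells under vorinostat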 (primary screen)
System: human HCT116-VR colon cancer cells, selected for vorinostat resistance
Reagents: siRNA pool against human genes, 40 nM siRNA pool
Duration: vorinostat for 24 h, read-out about 72 h after transfection
Conditions: vorinostat at 2.5 µM final
Measurement: 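Two measures, CellTiter-Fluor viability and luminescent caspase 3/7 activity, each as fold change against same-plate mock wells, mean of duplicates, then screen-wide robust z-score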
Scale: viability robust z-score: higher = more viable cells than screen typical; caspase robust z-score: higher = more caspase 3/7 activity than screen typical
Rule for the call: 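a knock-down is a hit when classed RV1 or RV2 for lowered viability, or CA1 or CA2 for caspase activation; those lethal without drug were dropped; hits were retested singly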

gene symbol	viability hit class	caspase hit class	viability robust z-score	caspase robust z-score
ADAMTSL1	no change	no change	-0.02	0.21
KRT2	no change	no change	-1.96	-0.39
HSPA12A	no change	no change	0.33	0.36
PATZ1	no change	no change	0.55	0.02
ITIH1	no change	no change	0.06	-0.99
CHKB	no change	no change	0.46	0.01
TGM7	no change	no change	-0.84	3.34
PABPC1	no change	no change	-0.96	0.26
FOLR1	no change	no change	-1.34	0.7
GPR35	no change	no change	-2	-0.06
CMTM4	no change	no change	0.48	-1.46
MBOAT2	no change	no change	-0.1	-0.52
ASGR1	no change	no change	-1.74	0.71
LYVE1	no change	no change	-0.15	1.31
SLITRK1	no change	no change	-0.2	1.75
C1orf50	no change	no change	-0.24	0.44
SERPINA6	no change	no change	0.44	-0.16
DDTL	no change	no change	0.13	-0.02
KITLG	no change	no change	0.65	-0.73
TBC1D29P	no change	no change	-0.41	0
INVS	no change	no change	0.64	-0.82
CADM3	no change	no change	0.78	2.08
IL15RA	no change	no change	-0.74	4.95
MIDN	no change	no change	-0.94	-0.28
ULK2	no change	no change	-0.08	0.38
GKN1	no change	no change	0.87	0.76
LATS1	no change	no change	0.32	-0.52
CSE1L	no change (active)	CA1 (caspase activation)	-2.15	5.29
USP12	no change	no change	0.22	0.34
C8orf74	no change	no change	0.32	1.68
USE1	no change	no change	-0.76	-1.21
THBS2	no change	no change	0.02	0.01
EIF2AK2	no change	no change	0.18	-0.73
CASP14	no change	no change	0.16	1.78
PGRMC2	no change	no change	-1.46	-0.49
ABCB4	no change	no change	-0.66	1.21
RAD21	no change	no change	-0.52	1.8
CYP7B1	no change	no change	-0.1	-0.57
PRR13	no change	no change	0.7	-0.2
VIPAS39	no change	no change	1.08	-0.7
HACL2	no change	no change	-1.12	2.73
THAP2	no change	no change	1.3	-0.76
SOX17	no change	no change	0.62	-0.68
ZNG1E	no change	no change	0.91	-0.25
ATP6V0C	no change	no change	0.26	-0.64
MYO1F	no change	no change	0.42	0.53
FRYL	no change	no change	1.19	-0.76
ETFBKMT	no change	no change	0.15	-0.34
LCN10	no change	no change	1.54	0.73
PGA4	no change	no change	-0.73	-0.22
ROBO3	no change	no change	1.15	0.58
POU1F1	no change	no change	0.36	0.75
NIPSNAP2	no change	no change	0.15	-0.47
SEMA5B	no change	no change	-0.2	-1.18
COPA	no change	no change	-3.42	0.18
SVOPL	no change	no change	-2.33	-1.21
BICDL1	RV2 (reduced viability) (active)	no change	-3.5	-1.25
SLC13A1	no change	no change	1.32	0.08
ANKRA2	no change	no change	1.77	-0.55
SLCO1C1	no change	no change	0.18	-0.49
PEAK1	no change	no change	1.03	-0.52
PTPRN2	no change	no change	0.01	0.24
WHR1	no change	no change	0.05	-0.06
TEC	no change	no change	1.02	-0.88
PTPRN	no change	no change	-0.76	0.77
STX16	no change	no change	0.96	-1.03
ITGAL	no change	no change	0.49	1.84
PCED1B	no change	no change	0.56	-0.59
ADD1	no change	no change	0.4	-0.3
CELF4	no change	no change	0.81	3.37
TAP1	no change	no change	-1.02	-0.7
DEFB105A	no change	no change	-0.18	-0.2
CHAC1	no change	no change	-1.51	-0.22

Look-ups from the entries so far:
For “viability robust z-score”, ROBO3 has 1.15
For “viability robust z-score”, ABCB4 is entered as -0.66
For “caspase robust z-score”, TGM7 shows 3.34
CADM3, viability robust z-score = 0.78
Result for PGA4 under “viability robust z-score”: -0.73
Under “viability hit class”, LATS1 shows no change
